Results are given in words; binding and its absence hold for the method and conditions named.
Target: E. coli SspA(G97I) (E. coli) (UniProt P0ACA3)
Experiment: SEC; both purified

- binding: no binding
B1: E. coli SspA(G97I) (protein, UniProt P0ACA3 1-212)
chain: MAVAANKRSVMTLFSGPTDIYSHQVRIVLAEKGVSFEIEHVEKDNPPQDLIDLNPNQSVPTLVDRELTLWESRIIMEYLDERFPHPPLMPVYPVARIESRLYMHRIEKDWYTLMNTIINGSASEADAARKQLREELLAIAPVFGQKPYFLSDEFSLVDCYLAPLLWRLPQLGIEFSGPGAKELKGYMTRVFERDSFLASLTEAEREMRLGRS
